Data from PubChem BioAssay AID493014 (National Center for Advancing Translational Sciences (NCATS), 2011).
The other results are listed elsewhere or left out. The main result of the screen is listed elsewhere. These columns were measured beside it and carry no call. Compounds called inactive in the main read-out are mostly missing here. Potencies come from curve fits of mixed quality, noted in brackets.

assay: qHTS Assay to Find Inhibitors of Chronic Active B-Cell Receptor Signaling; details: ABC-DLBCL IkBa-CBG/CBR reporter, luminescence ratio (green luciferase fused to IkBa over red control in TMD8 lymphoma cells), 4 h; measured here: CBR red luminescence, cell number
In short: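 Compounds up to 46 uM were incubated four hours with TMD8 cells whose green CBG68 luciferase is fused to IkappaBalpha; red CBR luminescence normalised the signal, and concentration-effect curves were fitted to fusion, red and ratio data.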

| Structure (SMILES) | AC50 |
| --- | --- |
| CCCCC(CCC(=O)Nc1ccn(-c2ccccc2)n1)C(=O)O (stereo not drawn) | 6.31 µM [rising, single point] |
| COc1ccc(OC(=O)Nc2ccccc2)cc1 | 23.1 µM [falling, single point] |
| CC(C)(C)C(=O)OCc1nc(-c2ccc(Cl)cc2)cs1 | 11.2 µM [rising, partial curve, poor fit] |
| O=C(NNC(=O)c1ccccc1OCc1ccccc1Cl)c1csc(N2CCOCC2)n1 | 35.5 µM [rising, single point] |
| O=C(NC(=S)Nc1ccccc1[N+](=O)[O-])c1ccccc1Cl | 35.5 µM [rising, single point] |
| CCOC(=O)C1=C2SCCN2C(=O)C(C#N)C1(C)C (stereo not drawn) | 15.8 µM [falling, partial curve, poor fit] |
| O=S(=O)(Nc1cccc(-c2ccc3nncn3n2)c1)c1cc(F)ccc1F | 25.9 µM [rising, single point] |
| O=C1/C(=C\c2ccco2)NC(=S)N1c1ccccc1 | 0.501 µM [falling, full curve] |
| CCCNC(=O)c1ccc2c(=O)n(Cc3ccco3)c(=S)[nH]c2c1 | 1.78 µM [falling, full curve] |
| COc1ccc(NC(=O)C(C)Sc2nnc3c4c(nc(-c5ccc(OC)cc5)n23)CC(C)(C)OC4)cc1 (stereo not drawn) | 0.231 µM [rising, full curve, poor fit] |
| Cc1ccc(OCC(=O)NC(=S)Nc2cccc(NC(=O)c3ccccc3Cl)c2)cc1 | 23.1 µM [falling, partial curve, poor fit] |
| COc1ccc(C(=O)N(C)CCCC2CCCC2)cc1OC1CCN(C(C)C)CC1 | 12.6 µM [falling, single point] |
| COc1ccc(OCC(=O)Nc2c(C(=O)N(CCN(C)C)Cc3ccco3)oc3ccccc23)cc1 | 1 µM [falling, full curve, poor fit] |
| O=C(O)CCc1ccc(S(=O)(=O)NCCc2ccccc2)cc1 | 35.5 µM [falling, single point] |
| COCCCn1c(SCC(=O)Nc2ccc(C)cc2)nc2ccccc2c1=O | 35.5 µM [rising, single point] |
| O=S(=O)(Nc1ccccc1O)c1cccc2cccnc12 | 6.31 µM [rising, single point] |
| O=C(NNC(=O)c1ccc2ccccc2c1O)Nc1ccc(F)cc1 | 12.6 µM [rising, single point] |
| O=C(Nc1ccc(-c2cn3c(n2)SCC3)cc1)c1ccc2c(c1)OCO2 | 7.08 µM [falling, partial curve] |

Another view of two compounds above:
CCCCC(CCC(=O)Nc1ccn(-c2ccccc2)n1)C(=O)O (stereo not drawn)
  AC50: 6.31 µM [rising, single point]
O=C(Nc1ccc(-c2cn3c(n2)SCC3)cc1)c1ccc2c(c1)OCO2
  AC50: 7.08 µM [falling, partial curve]
